Test results as given in article PMC11040761.
No constants are given. Whether binding was seen depends on the method and setting. In cells and extracts the contact can be indirect. Some binding calls cover weakened binding; strength is not graded here.

Target: T1, 3-hydroxy-3-methylglutaryl-Coa Synthase 2 (HMGCS2) (human) (UniProt P54868)
T1 sequence: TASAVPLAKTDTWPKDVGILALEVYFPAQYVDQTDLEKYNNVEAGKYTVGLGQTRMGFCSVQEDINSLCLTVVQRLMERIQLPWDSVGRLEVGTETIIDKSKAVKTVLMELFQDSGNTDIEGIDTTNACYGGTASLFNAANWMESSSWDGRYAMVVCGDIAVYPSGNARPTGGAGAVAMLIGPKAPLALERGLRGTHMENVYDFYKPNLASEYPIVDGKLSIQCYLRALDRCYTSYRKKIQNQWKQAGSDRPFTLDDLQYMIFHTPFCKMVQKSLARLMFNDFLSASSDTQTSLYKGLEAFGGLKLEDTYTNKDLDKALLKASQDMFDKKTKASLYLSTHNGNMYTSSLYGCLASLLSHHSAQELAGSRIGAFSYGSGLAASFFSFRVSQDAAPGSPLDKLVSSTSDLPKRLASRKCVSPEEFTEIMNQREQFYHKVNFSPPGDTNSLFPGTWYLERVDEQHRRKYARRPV
Assay: co-IP; total extracts of A549 cells with or without ectopic HMGCS2, co-IP lysis buffer; rabbit anti-HMGCS2 at 4 °C overnight, Protein G Agarose 4 h, three washes; WB detection

binding: binds
B1: PPARα (protein, UniProt Q07869 1-468)
chain: MVDTESPLCPLSPLEAGDLESPLSEEFLQEMGNIQEISQSIGEDSSGSFGFTEYQYLGSCPGSDGSVITDTLSPASSPSSVTYPVVPGSVDESPSGALNIECRICGDKASGYHYGVHACEGCKGFFRRTIRLKLVYDKCDRSCKIQKKNRNKCQYCRFHKCLSVGMSHNAIRFGRMPRSEKAKLKAEILTCEHDIEDSETADLKSLAKRIYEAYLKNFNMNKVKARVILSGKASNNPPFVIHDMETLCMAEKTLVAKLVANGIQNKEAEVRIFHCCQCTSVETVTELTEFAKAIPGFANLDLNDQVTLLKYGVYEAIFAMLSSVMNKDGMLVAYGNGFITREFLKSLRKPFCDIMEPKFDFAMKFNALELDDSDISLFVAAIICCGDRPGLLNVGHIEKMQEGIVHVLRLHLQSNHPDDIFLFPKLLQKMADLRQLVTEHAQLVQIIKKTESDAALHPLLQEIYRDMY
